Assay results as given in US20230126310A1 (priority 2020, published 2023).

System: SARS-CoV-2
Assay: microbe, parasite or virus in culture
Settings: Severe acute respiratory syndrome coronavirus 2, Caco-2, 48 h, read-out: % Inh. (% Inhibition of SARS-CoV-2)

Cc1cc(/C=C/c2ccc3cc(N(C)C)ccc3[n+]2C)c(C)n1-c1ccccc1 [pyrvinium]
inhibition at 10 µM: 74.7%
